Laboratory results from patent US20060140970A1, “Proteic binding partners of TCTP and methods of modulating tumor reversion or cell apoptosis” (priority 2003, published 2006).
For part of these data: At least one read-out could not be matched to a standard name with certainty. Some of these results come from one statement about several compounds together. For part of these data: For at least one compound, name, drawing or mass did not settle the structure.

How the values were obtained:
[1] = target: T1, eEF1A (Oryctolagus cuniculus, UniProt P68105); conditions: stated as known; read-out: affinity for eEF1A; cited from earlier work
T1 construct: Rabbit liver eEF1A was purified as described in Shalak et al; from tissue; host or cells: rabbit liver
T1 sequence (P68105 1-462): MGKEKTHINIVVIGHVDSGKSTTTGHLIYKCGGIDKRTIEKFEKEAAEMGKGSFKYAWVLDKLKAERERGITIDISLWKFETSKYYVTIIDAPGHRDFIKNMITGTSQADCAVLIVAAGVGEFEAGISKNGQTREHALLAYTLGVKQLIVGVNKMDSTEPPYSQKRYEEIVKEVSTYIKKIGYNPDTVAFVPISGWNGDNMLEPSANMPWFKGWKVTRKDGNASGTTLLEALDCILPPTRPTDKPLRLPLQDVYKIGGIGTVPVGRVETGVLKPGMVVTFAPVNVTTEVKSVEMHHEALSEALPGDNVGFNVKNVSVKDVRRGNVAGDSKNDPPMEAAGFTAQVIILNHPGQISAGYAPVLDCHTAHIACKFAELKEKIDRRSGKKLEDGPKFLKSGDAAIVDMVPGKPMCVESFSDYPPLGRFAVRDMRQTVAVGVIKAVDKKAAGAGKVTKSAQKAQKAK

[2] = target: T1, eEF1A; assay: Guanine nucleotide exchange assay on eEF1A (eEF1A-[3H]GDP dissociation); assay type: biochemical, rabbit; conditions: 3 μM TCTP, 150 μM free GDP, 0° C.
Description: Guanine nucleotide exchange assay. Rabbit liver eEF1A was purified as described in Shalak et al., Ukr Biokhim Zh, 69: 104-9 (1997), incorporated herein by reference. The guanine nucleotide exchange on eEF1A was monitored as described in Negrutskii et al., J Biol Chem, 274: 4545-50 (1999) and Bec et al., J Biol Chem, 269: 2086-92 (1994), both of which are incorporated herein by reference. The eEF1A-[^3H]GDP complex was prepared following incubation of 4 μM eEF1A with 4 μM [^3H]GDP (Amersham Biosciences; 1500 Ci/mol) in 80 μl of 45 mM Tris-HCl (pH 7.5) containing 0.5 mM DTT, 10 mM magnesium acetate, 100 mM NH4Cl, 1 mg/ml bovine serum albumin and 25% glycerol for 5 minutes at 37° C. […] Filters were washed 3 times with 1 ml of ice-cold washing buffer [20 mM Tris-HCl (pH 7.5), 10 mM magnesium acetate, 100 mM NH4Cl, 0.1 mg/ml bovine serum albumin], dried and counted in a liquid scintillator.
The functional relevance of a TCTP and eEF1A association was further investigated by monitoring the effects of TCTP on the rate of dissociation of GDP from the eEF1A-[^3H]-GDP complex. Whether TCTP preferentially binds to the GDP-bound form of the factor (and pushes the equilibrium toward the formation of eEF1A-GDP) or associates with the nucleotide free form of eEF1A (and displaces the exchange reaction toward the formation of eEF1A) was determined. […]

| Compound | Kd [1] | half-life of the eEF1A-[3H]-GDP complex [2] |
| --- | --- | --- |
| Nc1nc2c(ncn2[C@@H]2O[C@H](COP(=O)(O)OP(=O)(O)OP(=O)(O)O)[C@@H](O)[C@H]2O)c(=O)[nH]1 [GTP, Guanosine 5′-triphosphate] | 2 to 4 µM |  |
| TCTP: purified recombinant TCTP protein, bacterially expressed, GST moiety removed |  | 39 min |
| Nc1nc2c(ncn2[C@@H]2O[C@H](COP(=O)(O)OP(=O)(O)O)[C@@H](O)[C@H]2O)c(=O)[nH]1 [GDP] | 2 to 4 µM |  |
